Measured values taken from article PMC4851828.
Results are given in words; binding and its absence hold for the method and conditions named. Binding seen in cells or lysates may run through a third protein. Some binding calls cover weakened binding; strength is not graded here.

Experiments:
[1] = molecular target: T1, Spt6-TAP (S. cerevisiae) (UniProt P23615); experiment: pull-down; TAP-tag pull-down: yeast whole cell extract (5 mg protein; 20 mM HEPES pH 7.4, sodium acetate, 2 mM magnesium acetate, 10 mM EDTA, 10 % glycerol, 1 mM DTT) with IgG sepharose, 4 °C, 3.5 h; washed twice with lysis buffer with 400 mM sodium chloride; immunoblot for histone H3 and TAP
T1 sequence: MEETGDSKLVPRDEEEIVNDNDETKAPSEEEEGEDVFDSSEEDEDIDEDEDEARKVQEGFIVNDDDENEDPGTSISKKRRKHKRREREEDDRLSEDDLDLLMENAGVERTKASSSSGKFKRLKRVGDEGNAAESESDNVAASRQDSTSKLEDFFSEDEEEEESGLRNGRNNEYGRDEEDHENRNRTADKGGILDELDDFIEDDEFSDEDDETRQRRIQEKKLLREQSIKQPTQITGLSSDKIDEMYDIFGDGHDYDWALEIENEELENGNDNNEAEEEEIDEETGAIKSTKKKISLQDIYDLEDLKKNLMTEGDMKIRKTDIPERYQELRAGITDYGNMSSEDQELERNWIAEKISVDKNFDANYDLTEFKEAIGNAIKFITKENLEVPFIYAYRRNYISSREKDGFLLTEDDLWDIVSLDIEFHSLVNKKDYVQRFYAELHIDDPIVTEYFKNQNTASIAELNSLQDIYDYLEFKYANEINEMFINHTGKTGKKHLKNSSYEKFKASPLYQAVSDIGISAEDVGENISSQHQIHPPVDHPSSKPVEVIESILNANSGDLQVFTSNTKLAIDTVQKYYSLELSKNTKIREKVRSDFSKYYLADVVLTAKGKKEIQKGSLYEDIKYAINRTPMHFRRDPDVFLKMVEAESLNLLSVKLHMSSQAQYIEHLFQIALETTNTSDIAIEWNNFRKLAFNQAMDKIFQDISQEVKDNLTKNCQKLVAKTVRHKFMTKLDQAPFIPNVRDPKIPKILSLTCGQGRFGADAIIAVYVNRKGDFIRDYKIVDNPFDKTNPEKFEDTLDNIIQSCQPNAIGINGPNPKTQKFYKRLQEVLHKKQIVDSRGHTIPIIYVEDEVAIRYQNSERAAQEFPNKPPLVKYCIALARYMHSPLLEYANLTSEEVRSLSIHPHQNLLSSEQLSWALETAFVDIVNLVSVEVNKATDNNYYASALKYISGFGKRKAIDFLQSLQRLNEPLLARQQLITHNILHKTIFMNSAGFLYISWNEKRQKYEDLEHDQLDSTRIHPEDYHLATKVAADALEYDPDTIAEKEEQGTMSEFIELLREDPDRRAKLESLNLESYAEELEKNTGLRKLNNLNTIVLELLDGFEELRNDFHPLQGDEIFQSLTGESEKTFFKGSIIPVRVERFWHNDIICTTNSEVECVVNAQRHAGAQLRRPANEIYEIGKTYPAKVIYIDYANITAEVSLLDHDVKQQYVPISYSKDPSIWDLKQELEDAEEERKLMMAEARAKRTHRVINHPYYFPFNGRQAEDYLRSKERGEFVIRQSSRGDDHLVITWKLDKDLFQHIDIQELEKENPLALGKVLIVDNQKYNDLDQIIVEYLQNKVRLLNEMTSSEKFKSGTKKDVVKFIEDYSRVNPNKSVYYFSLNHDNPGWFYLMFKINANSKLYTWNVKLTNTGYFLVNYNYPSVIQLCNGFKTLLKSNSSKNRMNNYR

[2] = molecular target: T2, Spt2-TAP (S. cerevisiae) (UniProt P06843); experiment: as above
T2 sequence: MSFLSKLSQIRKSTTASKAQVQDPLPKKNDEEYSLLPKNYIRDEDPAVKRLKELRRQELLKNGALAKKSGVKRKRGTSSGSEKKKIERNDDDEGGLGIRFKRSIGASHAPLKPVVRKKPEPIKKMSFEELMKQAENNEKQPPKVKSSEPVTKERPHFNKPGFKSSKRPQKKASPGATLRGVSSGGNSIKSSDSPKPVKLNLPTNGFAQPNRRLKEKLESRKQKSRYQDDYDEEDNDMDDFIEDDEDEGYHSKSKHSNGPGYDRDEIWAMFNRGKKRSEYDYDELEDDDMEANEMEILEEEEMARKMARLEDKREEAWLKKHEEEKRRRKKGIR

Row | binding [1] | binding [2] | Substance
1 | binds | binds | histone H3 R49A (from UniProt P61830 1-136)
2 | binds | binds | histone H3 K122A (from UniProt P61830 1-136)
3 | binds | binds | histone H3 Q120A (from UniProt P61830 1-136)
4 | binds | binds | histone H3 (WT synthetic histone allele, HHTS) (from UniProt P61830 1-136)
